Reference: paper PMC8618441, “From Natural Xanthones to Synthetic C-1 Aminated 3,4-Dioxygenated Xanthones as Optimized Antifouling Agents” (Marine Drugs, 2021)
Where “and” joins values, the source holds several entries; their conditions need not be identical. Equal entries are not always repeated.

Test system: Mytilus galloprovincialis plantigrade larvae
Experiment: Toxicity (LC50, therapeutic ratio) toward mussel plantigrade larvae
Type: in vivo
Details: therapeutic ratio LC50 (μM)/EC50 (μM), mussel plantigrades
Procedure: For the bioassays, M. galloprovincialis juveniles were collected in intertidal mussel beds during low tides in Memória beach, Matosinhos, Portugal (41°13′59″ N; 8°43′28″ W). Mussel plantigrade larvae (0.5–2 mm) were sorted in a binocular magnifier (Olympus SZX2-ILLT, Tokyo, Japan) and those presenting foot exploring behavior for settlement were selected to the screening bioassays at 50 µM performed in 24-well microplates for 15 h, in the dark at 18 ± 1 °C, according to Almeida et al.. Four well replicates per condition and five competent larvae per well were included. Negative and positive controls were included, namely DMSO (0.1%) and CuSO4 (5 µM) as an efficient antifouling agent. Stock solutions in DMSO (50 mM) were used to prepare test media (50 µM) in filtered seawater (0.1% DMSO). After the exposure period, the anti-settlement bioactivity was determined by the observation of efficiently attached plantigrade larvae considering the existence/absence of produced byssal threads for each test condition.
Data from the anti-settlement screening were analyzed using a one-way analysis of variance (ANOVA), followed by a Dunnett test against the negative control (p < 0.05). […] Therapeutic ratios (LC50/EC50) were used to evaluate the effectiveness versus toxicity of bioactive compounds. […] The mixed model ANOVA was performed on log10(x + 1)-transformed values from 4 biological replicates, employing the software IBM SPSS Statistics (version 21, SPSS Inc., Chicago, IL, USA).

SMILES | LC50/EC50
COc1cc(CN2CCCCC2)c2c(=O)c3ccccc3oc2c1OC [Compound 23, 3,4-dimethoxy-1-(piperidin-1-ylmethyl)-9H-xanthen-9-one] | > 15 and >28.01
COc1cc(C)c2c(=O)c3ccccc3oc2c1OC [Compound 1, 3,4-dimethoxy-1-methyl-9H-xanthen-9-one] | >8.47
COc1ccc2c(=O)c3c(C)cc(OC)c(OC)c3oc2c1 [Compound 2, 3,4,6-trimethoxy-1-methyl-9H-xanthen-9-one] | >3.69
COc1cc(CN2CCc3c(N)cccc3C2)c2c(=O)c3ccccc3oc2c1OC [Compound 21, 1-((5-amino-3,4-dihydroisoquinolin-2(1H)-yl)methyl)-3,4-dimethoxy-9H-xanthen-9-one] | >13.74
COc1cc(CO)c2c(=O)c3ccccc3oc2c1OC [Compound 8, 1-(hydroxymethyl)-3,4-dimethoxy-9H-xanthen-9-one] | >4.59
COc1cc(CN2CCN(CCO)CC2)c2c(=O)c3ccccc3oc2c1OC [Compound 19, 1-((4-(2-hydroxyethyl)piperazin-1-yl)methyl)-3,4-dimethoxy-9H-xanthen-9-one] | >1.86
COc1cc(CNCCN2CCOCC2)c2c(=O)c3ccccc3oc2c1OC [Compound 16, 3,4-dimethoxy-1-(((2-morpholinoethyl)amino)methyl)-9H-xanthen-9-one] | >5.71
COc1ccc2c(=O)c3c(CCl)cc(OC)c(OC)c3oc2c1 [Compound 4, 1-(chloromethyl)-3,4,6-trimethoxy-9H-xanthen-9-one] | >6.19
